Laboratory results: the supplement of paper PMC10689618
The other results are listed elsewhere or left out. Many values rest on one well or one pass, so single values are uncertain.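 Labelled rat cortical synaptosomes were engulfed by primary human fetal astrocytes. Engulfment equaled a red/green ratio, corrected for calcein live-cell signal and normalized to the plate median. Compounds were toxic when calcein dropped over 30%, and reduced phagocytosis when below 70% of the median above 5 µM.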

How the values were obtained:
Human fetal astrocytes [1] = test: loss of total cells relative to no-compound high-control median (toxicity); higher = more toxic (fewer cells); conditions: 24 h
Human fetal astrocytes [2] = test: synaptosome phagocytosis (pHrodo/calcein intensity ratio) relative to plate median of data wells; higher = more phagocytosis; conditions: 24 h

Structure (SMILES) | loss of total cells (Human fetal astrocytes [1]; 1.39 µM) [%] | loss of total cells (Human fetal astrocytes [1]; 2.78 µM) [%] | loss of total cells (Human fetal astrocytes [1]; 5.56 µM) [%] | loss of total cells (Human fetal astrocytes [1]; 11.11 µM) [%] | loss of total cells (Human fetal astrocytes [1]; 22.22 µM) [%] | synaptosome phagocytosis (Human fetal astrocytes [2]; 1.39 µM) [%] | synaptosome phagocytosis (Human fetal astrocytes [2]; 2.78 µM) [%] | synaptosome phagocytosis (Human fetal astrocytes [2]; 5.56 µM) [%] | synaptosome phagocytosis (Human fetal astrocytes [2]; 11.11 µM) [%] | synaptosome phagocytosis (Human fetal astrocytes [2]; 22.22 µM) [%]
COC(=O)C[C@H]1C2(C)CC34OC5(C)O[C@@]6([C@H](OC)C(OC(=O)C(C)C)[C@]7(C)C(/C(=C(/OC)C(C)C)C(=O)O[C@H]7c7ccoc7)[C@@]6(O5)[C@H](OC)[C@@]3(OC)C2OC(C)=O)[C@]14C (stereo not given in full) | 23.6 | -10.6 | -26.7 | 37.4 | 1.9 | 120 | 93.2 | 88.4 | 124 | 97.3
C=C(C)[C@@H]1CC=C(CO)CC1 | -9.8 | 0.4 | 10.3 | -2 | -2.2 | 99.9 | 96.2 | 105 | 98.4 | 75.9
OC[C@H]1O[C@@H](OCCc2ccc(O)cc2)[C@H](O)[C@@H](O)[C@@H]1O | -3.3 | -4.7 | -8.8 | 29.1 | 14.8 | 115 | 105 | 127 | 114 | 138
C[C@@H]1C[C@H]2[C@@H]3C[C@H](F)C4=CC(=O)C=C[C@]4(C)[C@@]3(F)[C@@H](O)C[C@]2(C)[C@@]1(O)C(=O)COC(=O)C(C)(C)C | -8.6 | -21.4 | 0 | -14.1 | -8.2 | 125 | 101 | 110 | 131 | 84.3
COc1ccc(-c2oc3cc(OC)c(OC)c(OC)c3c(=O)c2OC)cc1OC | -23 | -11.9 | -3.7 | 25.7 | 0.7 | 99.3 | 109 | 90.3 | 84.6 | 88.8
CC(=O)O[C@]1(C(C)=O)CC[C@H]2[C@@H]3C=C(Cl)C4=CC(=O)CC[C@]4(C)[C@H]3CC[C@@]21C | -47.6 | 27 | -9.9 | 43 | 1.6 | 106 | 153 | 112 | 177 | 98.8
COc1ccc(C[C@H](N)C(=O)N[C@H]2[C@@H](O)[C@H](n3cnc4c(N(C)C)ncnc43)O[C@@H]2CO)cc1 | -3.3 | 3.4 | 9.9 | 33.6 | 25.5 | 73.5 | 93.7 | 50.7 | 27.9 | 29.3
S=c1[nH]cnc2nc[nH]c12 | 2.1 | 1.7 | 3.5 | 9.5 | -17.9 | 111 | 98.9 | 61.4 | 97.9 | 81.4
COc1ccc2cc1Oc1ccc(cc1)C[C@H]1c3c(cc4c(c3Oc3cc5c(cc3OC)CCN(C)[C@@H]5C2)OCO4)CCN1C | 14.1 | 13.4 | 16.7 | 2.9 | 19.7 | 67.9 | 89.4 | 110 | 123 | 119
COc1cc(-c2coc3cc(OCc4ccccc4)c(OC)c(O)c3c2=O)cc(OCc2ccccc2)c1OC | -22.8 | 2.7 | 39.7 | -5.2 | 24.8 | 109 | 113 | 93.9 | 111 | 145
CN1[C@@H](CC(=O)c2ccccc2)CCC[C@H]1C[C@H](O)c1ccccc1 | 17.7 | -8.3 | -2.9 | 11.3 | 12.9 | 102 | 72.7 | 72.6 | 119 | 62.2
C=C[C@](C)(O)CCC=C(C)C | 9.8 | 2.5 | 7.3 | 8.8 | 6.7 | 155 | 120 | 158 | 146 | 134
CC[C@H](CC[C@@H](C)[C@H]1CC[C@H]2[C@@H]3CC=C4C[C@@H](OC(C)=O)CC[C@]4(C)[C@H]3CC[C@]12C)C(C)C | 7.6 | 2 | 34.4 | -5.2 | 32.2 | 126 | 71.3 | 142 | 110 | 163
CCCCOc1cc(C(=O)NCCN(CC)CC)c2ccccc2n1 | 11.6 | -26.8 | -4.2 | 21 | 12.5 | 79.1 | 101 | 102 | 87.2 | 70.5
C[C@H](N)C(=O)NC(Cc1ccccc1)C(=O)O (mixture of isomers) | -12.3 | -8.3 | 10.3 | -12.8 | 5.9 | 91.4 | 80.2 | 119 | 108 | 87.3
CC1(C)S[C@@H]2[C@H](NC(=O)[C@H](N)c3ccccc3)C(=O)N2[C@H]1C(=O)O | 6.6 | -15.5 | 0.9 | -1.6 | 6.2 | 107 | 98.4 | 108 | 90 | 124
CC1(C)CC[C@]2(C)CC[C@]3(C)C(=CC[C@@H]4[C@@]5(C)CC[C@H](O)C(C)(C)[C@@H]5CC[C@]43C)[C@@H]2C1 [beta-AMYRIN] | -4 | 13.3 | -19.8 | 20 | -16.7 | 119 | 94.3 | 72.6 | 108 | 105
O=C1C=CC2=C3c4cc(O)c(O)cc4CC3(O)COC2=C1O (stereo not given) | -15.6 | 12.6 | 7.3 | 33.1 | 36.3 | 107 | 131 | 79.1 | 128 | 86.2
CN(C)c1ccc(C(=C2C=CC(=[N+](C)C)C=C2)c2ccc(N(C)C)cc2)cc1 | 11.6 | -2.4 | 18.8 | 48.7 | 96.4 | 81.7 | 57.8 | 63.8 | 63.6 | 38.2

Structure (SMILES) | loss of total cells (Human fetal astrocytes [1]; 1.39 µM) [%] | loss of total cells (Human fetal astrocytes [1]; 2.78 µM) [%] | loss of total cells (Human fetal astrocytes [1]; 5.56 µM) [%] | loss of total cells (Human fetal astrocytes [1]; 11.11 µM) [%] | loss of total cells (Human fetal astrocytes [1]; 22.22 µM) [%] | synaptosome phagocytosis (Human fetal astrocytes [2]; 1.39 µM) [%] | synaptosome phagocytosis (Human fetal astrocytes [2]; 2.78 µM) [%] | synaptosome phagocytosis (Human fetal astrocytes [2]; 5.56 µM) [%] | synaptosome phagocytosis (Human fetal astrocytes [2]; 11.11 µM) [%] | synaptosome phagocytosis (Human fetal astrocytes [2]; 22.22 µM) [%]
Nc1ccc(S(=O)(=O)Nc2ccccn2)cc1 | 8.6 | -26.1 | -14.6 | -0.3 | -19.8 | 126 | 131 | 80.5 | 113 | 101
COc1ccc(-c2coc3cc(O)ccc3c2=O)cc1 | 37.3 | 20.6 | 2.3 | 33.5 | -5.6 | 124 | 113 | 74.4 | 105 | 83.6
COc1cc(OC)c(C(C)=O)c(O)c1C | -16.3 | 10 | -18.3 | 15.5 | 1.1 | 127 | 125 | 80.6 | 110 | 108
O=C(CCCN1CCN(c2ccccn2)CC1)c1ccc(F)cc1 | -27.4 | 28.6 | 5 | 46.2 | 5.3 | 74.9 | 123 | 98.5 | 138 | 88
CC(C)OC(=O)C(C)(C)Oc1ccc(C(=O)c2ccc(Cl)cc2)cc1 [Fenofibrate] | -21.6 | -12.5 | -7.5 | -0.8 | 38 | 93.9 | 120 | 107 | 99.8 | 104
CCOC(=O)C1=C(COCCN)NC(C)=C(C(=O)OC)C1c1ccccc1Cl (stereo not given) | -31.5 | -46 | -8.7 | -17.4 | -9 | 72.5 | 84.4 | 112 | 69 | 103
CC(=O)OCC(=O)[C@@]12OC3(CCCC3)O[C@@H]1C[C@H]1[C@@H]3CCC4=CC(=O)C=C[C@]4(C)[C@@]3(F)[C@@H](O)C[C@@]12C | -38.7 | -15.1 | 3.7 | 16.1 | -0.3 | 89.3 | 105 | 80 | 98.7 | 110
CC1=C(C/C=C(\C)CCC[C@H](C)CCC[C@H](C)CCCC(C)C)C(=O)c2ccccc2C1=O | -12.7 | 6 | 35.9 | 41.9 | -13.7 | 66.3 | 100 | 149 | 118 | 86.3
COc1cc(C(=O)N2CCOCC2)cc(OC)c1OC | 15.3 | -35.7 | 9.3 | -12.8 | 0.3 | 157 | 96.5 | 99.3 | 103 | 93.1
C#CC1(O)CC[C@H]2[C@@H]3CCC4=CC(=O)CC[C@@H]4[C@H]3CC[C@@]21CC (mixture of isomers) | -14.1 | -2.1 | -16.5 | -2.3 | 1.1 | 122 | 104 | 106 | 95 | 104
Cc1c(Nc2ncccc2C(=O)O)cccc1C(F)(F)F | -27.4 | -36.5 | 3.7 | 1 | -0.9 | 85.3 | 100 | 123 | 78 | 103
CNCCc1ccccn1 | 14.5 | -32.2 | -2.1 | 3.2 | -18.5 | 93.8 | 113 | 92.4 | 104 | 114
OCc1cccnc1 | -21.8 | -11.9 | 16.1 | 31.8 | 10.3 | 131 | 105 | 142 | 159 | 118
Cc1ccnc(NS(=O)(=O)c2ccc(N)cc2)n1 | 6.8 | -9.2 | 0 | 3.2 | 2.7 | 115 | 129 | 114 | 134 | 104
C[n+]1ccccc1/C=N/O | 27.4 | -26.2 | 9.9 | -10.8 | 10.3 | 156 | 96 | 116 | 85.1 | 134
COc1c2occc2c(OC)c2c(=O)cc(C)oc12 | 25.6 | 26.4 | 23.9 | -2.1 | 5.3 | 125 | 99.1 | 128 | 110 | 101
NS(=O)(=O)c1cc2c(cc1Cl)N=C(CSCc1ccccc1)NS2(=O)=O | -14.9 | 5.8 | -11.1 | 10.2 | -1.1 | 135 | 86 | 91.4 | 179 | 125
CCCC(=O)Nc1ncnc2c1ncn2[C@@H]1O[C@@H]2COP(=O)(O)O[C@H]2[C@H]1OC(=O)CCC | 15.5 | 10.5 | 10.1 | 13.8 | 13.6 | 120 | 126 | 137 | 126 | 62.6
CC(=O)Nc1cccc(O)c1 | 1.8 | 8.3 | 10.1 | -7.1 | 2.3 | 82.6 | 82.8 | 118 | 138 | 119

Complete entries from above. Order of values: loss of total cells (Human fetal astrocytes [1]; 1.39 µM) [%]	loss of total cells (Human fetal astrocytes [1]; 2.78 µM) [%]	loss of total cells (Human fetal astrocytes [1]; 5.56 µM) [%]	loss of total cells (Human fetal astrocytes [1]; 11.11 µM) [%]	loss of total cells (Human fetal astrocytes [1]; 22.22 µM) [%]	synaptosome phagocytosis (Human fetal astrocytes [2]; 1.39 µM) [%]	synaptosome phagocytosis (Human fetal astrocytes [2]; 2.78 µM) [%]	synaptosome phagocytosis (Human fetal astrocytes [2]; 5.56 µM) [%]	synaptosome phagocytosis (Human fetal astrocytes [2]; 11.11 µM) [%]	synaptosome phagocytosis (Human fetal astrocytes [2]; 22.22 µM) [%]
CC(C)OC(=O)C(C)(C)Oc1ccc(C(=O)c2ccc(Cl)cc2)cc1 [Fenofibrate] in the list: -21.6	-12.5	-7.5	-0.8	38	93.9	120	107	99.8	104
COc1cc(C(=O)N2CCOCC2)cc(OC)c1OC in the list: 15.3	-35.7	9.3	-12.8	0.3	157	96.5	99.3	103	93.1
CCOC(=O)C1=C(COCCN)NC(C)=C(C(=O)OC)C1c1ccccc1Cl (stereo not given) in the list: -31.5	-46	-8.7	-17.4	-9	72.5	84.4	112	69	103
